Where a chain is given by its changes, count along the chain named. These are yes or no findings as the source states them, for the method shown. Some entries that bind do so weakly or less than the wild type. Each block holds one binder with its values, some of them ahead of it.
Tests used:
Chimera 6 [1] = test: flow cytometry on HEK293T cells, GFP-positive cells gated
[2] = target: CLEC14A wild type with a C terminal GFP tag (human) (UniProt Q86T13); test: as above
Chimera 6 [3] = test: flow cytometry, HEK293T Chimera 6 GFP, GFP-positive cells gated (R1); filled histogram is the control (files named IgG)
[4] = target: human CLEC14A-ECD-Fc (human) (UniProt Q86T13); test: pre-incubation of CLEC14A-ECD-Fc with antibody before MMRN2 pull-down
[5] = target: human CLEC14A-ECD-Fc (human) (UniProt Q86T13); test: ELISA, hybridoma supernatant on absorbed antigen
[6] = target: murine CLEC14A-Fc (mouse) (UniProt Q8VCP9); test: ELISA, hybridoma supernatant on absorbed antigen
Chimera 6 [7] = test: flow cytometry
[8] = target: CLEC14A wild type with a C terminal GFP tag (human) (UniProt Q86T13); test: flow cytometry, HEK293T CLEC14A WT GFP, GFP-positive cells gated (R1); filled histogram is the control (files named IgG)
[9] = target: human CLEC14A, full length (human) (UniProt Q86T13); test: flow cytometry on HUVECs
[10] = target: human CLEC14A, full length (human) (UniProt Q86T13); test: flow cytometry on HUVECs, FITC-labelled antibody after pre-treatment with BSA, C2 or C4
HA-CLEC14A (human) = HA-CLEC14A (human) (UniProt Q86T13); test: flow cytometry on HEK293T cells overexpressing HA-CLEC14A
[11] = target: human CLEC14A, full length (human) (UniProt Q86T13); test: flow cytometry on HUVECs with control or clec14a siRNA
[12] = target: CLEC14A with regions 97-108 of CD141 (human); test: flow cytometry, HEK293T 97-108 Chimera GFP, GFP-positive cells gated (R1); filled histogram is the control
[13] = target: CLEC14A with regions 97-108 of CD141 (human); test: flow cytometry

The chains behind the UniProt entries cited, without tags or fusion partners. Where a name states a change or a piece, a line headed by the entry shows the natural chain unless it says otherwise. Residues count along the entry.
UniProt Q86T13: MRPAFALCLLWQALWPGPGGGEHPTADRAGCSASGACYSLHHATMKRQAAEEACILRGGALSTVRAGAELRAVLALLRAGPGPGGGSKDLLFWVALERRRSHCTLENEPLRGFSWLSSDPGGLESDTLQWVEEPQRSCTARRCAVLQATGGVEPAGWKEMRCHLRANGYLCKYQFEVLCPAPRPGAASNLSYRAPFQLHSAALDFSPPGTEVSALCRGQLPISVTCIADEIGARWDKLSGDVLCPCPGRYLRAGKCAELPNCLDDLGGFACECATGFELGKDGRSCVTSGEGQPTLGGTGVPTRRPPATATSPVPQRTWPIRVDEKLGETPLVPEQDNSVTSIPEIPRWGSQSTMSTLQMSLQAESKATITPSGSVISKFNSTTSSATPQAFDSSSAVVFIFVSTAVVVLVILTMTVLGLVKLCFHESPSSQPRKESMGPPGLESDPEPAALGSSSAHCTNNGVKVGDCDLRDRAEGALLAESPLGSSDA
UniProt Q8VCP9, residues 22-386: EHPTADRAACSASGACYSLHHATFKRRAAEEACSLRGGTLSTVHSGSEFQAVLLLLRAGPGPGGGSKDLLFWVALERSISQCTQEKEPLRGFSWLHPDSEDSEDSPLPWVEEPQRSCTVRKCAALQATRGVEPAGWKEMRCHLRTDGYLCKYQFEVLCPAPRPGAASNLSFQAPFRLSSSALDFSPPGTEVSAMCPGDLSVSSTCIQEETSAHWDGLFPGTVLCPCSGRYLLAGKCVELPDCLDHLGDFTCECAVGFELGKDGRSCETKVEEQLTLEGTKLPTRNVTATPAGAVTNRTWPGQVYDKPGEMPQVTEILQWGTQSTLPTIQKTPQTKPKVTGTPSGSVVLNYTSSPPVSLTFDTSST

binding (Chimera 6 [1]): binds
binding [2]: binds
binding (Chimera 6 [3]): binds
binding [4]: binds
binding [5]: binds
binding [6]: binds
binding (Chimera 6 [7]): binds
binding [8]: binds
B1: CRT5 (antibody, IgG1, V domains shown)
VH: AEVQLQQSGAELMKPGASVKISCKATGYTFSSYWIEWVNQRPGHGLEWIGEILPGSGSTNYNEKFKGKATFTADTSSNTAYMQLSSLTSEDSAVYYCARGGDYDEEYYAMDYWGQGTSVTL
VL: QIVLTQSPAIMSASPGEKVTMTCSASSSVSYMYWYQQKPGSSPRLLIYDTSNLASGVPVRFSGSGSGTSYSLTISRMEAEDGATYYCQQWSSYPLTFGAGTKLELKR

binding (Chimera 6 [1]): binds
binding [2]: binds
binding (Chimera 6 [3]): binds
binding [4]: binds
binding [5]: binds
binding [6]: binds
binding (Chimera 6 [7]): binds
binding [9]: binds
binding [10]: binds
binding [8]: binds
binding (HA-CLEC14A (human)): binds
binding [11]: binds
B2: CRT4 (antibody, IgG1, V domains shown)
VH: QVQLQQSGAELMKPGASVKISCKATGYTFSSYWIEWVNRRPGHGLEWIGEILPGSGSTNYNEKFKGKATFTADTSSNTAYMQLSSLTSEDSAVYYCARGGDYDEEYYLMDYWGQGTTLTVSS
VL: B1 VL with G82A, L105I

binding [12]: binds
binding [13]: binds
B3: CRT3 (antibody, IgG1, V domains shown)
VH: EVQLQQSGTVLARPGASVKMSCKASGYTFTSYWMHWVKQRPGQGLEWIGAIYPGNSDTSYNQKFKGKAKLTAVTSTSTAYMELSSLTNEDSAVFYCTHYYGSDYAMDYWGQGTSVTV
VL: QIVLTQSPAIMSASLGERVTMTCTASSSVSSSYLHWYQQKPGSSPKLWIYSTSNLASGVPARFSGSGSGTSYSLTISSMEAEDAATYYCHQYHRSPRTFGGGTKLEIKR
